Data on one molecule can be found in publication doi:10.1101/564799.

By UniProt entry, the sequences of proteins in these tests, tags left out.
UniProt Q96FX7, whole entry: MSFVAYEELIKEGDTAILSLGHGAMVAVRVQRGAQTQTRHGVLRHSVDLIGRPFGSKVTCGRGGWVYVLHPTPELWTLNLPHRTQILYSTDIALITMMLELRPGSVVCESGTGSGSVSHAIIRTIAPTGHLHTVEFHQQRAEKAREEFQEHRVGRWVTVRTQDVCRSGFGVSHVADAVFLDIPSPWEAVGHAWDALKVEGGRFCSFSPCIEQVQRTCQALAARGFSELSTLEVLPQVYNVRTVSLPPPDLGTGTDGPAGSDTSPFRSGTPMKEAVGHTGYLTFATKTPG

This assay addresses TRMT61A (subunit of the recombinant human TRMT6/61A dimer) (human) (UniProt Q96FX7). Description: co-purification.

Results are given in words; binding and its absence hold for the method and conditions named. Some entries that bind do so weakly or less than the wild type.

B1: TRMT6 (subunit of the recombinant human TRMT6/61A dimer) (protein, UniProt Q9UJA5 1-497)
chain: MEGSGEQPGPQPQHPGDHRIRDGDFVVLKREDVFKAVQVQRRKKVTFEKQWFYLDNVIGHSYGTAFEVTSGGSLQPKKKREEPTAETKEAGTDNRNIVDDGKSQKLTQDDIKALKDKGIKGEEIVQQLIENSTTFRDKTEFAQDKYIKKKKKKYEAIITVVKPSTRILSIMYYAREPGKINHMRYDTLAQMLTLGNIRAGNKMIVMETCAGLVLGAMMERMGGFGSIIQLYPGGGPVRAATACFGFPKSFLSGLYEFPLNKVDSLLHGTFSAKMLSSEPKDSALVEESNGTLEEKQASEQENEDSMAEAPESNHPEDQETMETISQDPEHKGPKERGSKKDYIQEKQRRQEEQRKRHLEAAALLSERNADGLIVASRFHPTPLLLSLLDFVAPSRPFVVYCQYKEPLLECYTKLRERGGVINLRLSETWLRNYQVLPDRSHPKLLMSGGGGYLLSGFTVAMDNLKADTSLKSNASTLESHETEEPAAKKRKCPESDS
As for B1, the binding result is “binds”.
